Counter-ions that a name gives are not always drawn. The whole screen tested about 5,300 compounds, of which about 130 (2.5%) showed an effect of 50% or more. This is one part of the list.
Tested on: M. mycetomatis strain mm55
Conditions: primary screen, metabolic activity vs growth control; 96 h, 2 µM; inhibitor

| SMILES | % viability |
| --- | --- |
| N#CC(=C(/N)Sc1ccccc1N)/C(C#N)=C(\N)Sc1ccccc1N [ONC0002620, u0126] | 70.31% |
| Cc1[nH]c(/C=C2\C(=O)Nc3ccc(S(=O)(=O)Cc4c(Cl)cccc4Cl)cc32)c(C)c1C(=O)N1CCC[C@@H]1CN1CCCC1 [ONC0001382, pha665752] | 106.2% |
| O=C(O)CC/C=C\C[C@@H]1CO[C@H](c2ccccc2Cl)O[C@@H]1c1ccccc1O [ONC0000168, ici192605] | 108.7% |
| COc1ccc(CNCc2cccc3ccccc23)cc1 [ONC0005066, ml133 hcl] | 127.2% |
| NC(=O)[C@@H](CCC(F)(F)F)N(Cc1ccc(-c2ncon2)cc1F)S(=O)(=O)c1ccc(Cl)cc1 [ONC0004660, bms708163 avagacestat] | 74.48% |
| COc1ccc(S(=O)(=O)Nc2cc(Cl)cc(Cl)c2OC)cc1N1CCNCC1 [ONC0000041, sb399885] | 47.84% |
| CN(CCOc1ccc(-c2ccc3c(c2)OCO3)cc1C(C)(C)C)CC(=O)O [ONC0000080, ly2365109] | 127% |
| c1ccc2c(-c3cnn4cc(-c5ccc(N6CCNCC6)cc5)cnc34)ccnc2c1 [ONC0002248, ldn193189 hydrochloride] | 98.97% |
| CC(C)(Oc1ccc(C2CC2(Cl)Cl)cc1)C(=O)O (stereo not drawn) [ONC0005211, ciprofibrate] | 132.1% |
| Cc1csc(NC(=O)CSc2ccc(-c3ccccc3)nn2)n1 [ONC0001246, vu 0240551] | 69.07% |
| Cn1nccc1Nc1nccc(-c2ccn(C(CO)c3ccc(Cl)c(F)c3)c(=O)c2)n1 (stereo not drawn) [ONC0004559, gdc0994] | 64.97% |
| N[C@@H](CSS(=O)(=O)O)C(=O)O [ONC0001532, ssulfolcysteinesodiumsalt] | 120.8% |
| CCN1CCC[C@H]1CNC(=O)c1cc(S(N)(=O)=O)ccc1OC [ONC0000775, levosulpiride] | 92.97% |
| C[C@H](NC(=O)[C@@H](N)Cc1ccc(O)cc1)C(=O)NCC(=O)N(C)[C@@H](Cc1ccccc1)C(=O)N[C@H](CO)CC[S+](C)[O-] (stereo partly drawn) [ONC0001940, dala2nmephe4 methionin ool5enkephalin] | 95.76% |
| Clc1ccc(-c2nc3sccn3c2/C=N/OCc2ccc(Cl)c(Cl)c2)cc1 [ONC0002602, citco] | 80.8% |
| CCCCCCCCCCCC(=O)O [ONC0003515, dodecanoic acid] | 63.61% |
| CC1CCN(CCCC(=O)c2ccc(F)cc2)CC1 [ONC0003570, melperone] | 111.5% |
| Cc1nc2ccccc2c(-c2ccc3c4c(ccnc24)CCO3)c1[C@H](OC(C)(C)C)C(=O)O [ONC0003508, bi 224436] | 66.47% |
| O=C(O)[C@@H](S)[C@@H](S)C(=O)O [ONC0003848, dimercaptosuccinicacid] | 69.66% |
| COc1ccc(-c2oc3c(CC=C(C)C)c(O)cc(O)c3c(=O)c2O)cc1 [ONC0001762, icaritin] | 114% |

5 entries from above, ordered by heavy-atom count, largest number first.

| SMILES | % viability |
| --- | --- |
| NC(=O)[C@@H](CCC(F)(F)F)N(Cc1ccc(-c2ncon2)cc1F)S(=O)(=O)c1ccc(Cl)cc1 [ONC0004660, bms708163 avagacestat] | 74.48% |
| COc1ccc(S(=O)(=O)Nc2cc(Cl)cc(Cl)c2OC)cc1N1CCNCC1 [ONC0000041, sb399885] | 47.84% |
| CCN1CCC[C@H]1CNC(=O)c1cc(S(N)(=O)=O)ccc1OC [ONC0000775, levosulpiride] | 92.97% |
| CCCCCCCCCCCC(=O)O [ONC0003515, dodecanoic acid] | 63.61% |
| O=C(O)[C@@H](S)[C@@H](S)C(=O)O [ONC0003848, dimercaptosuccinicacid] | 69.66% |

Carrying on.

| SMILES | % viability |
| --- | --- |
| O=C1C(Cl)=C(NCCN2CCOCC2)C(=O)c2ncccc21 [ONC0002516, nsc663284] | 81.33% |
| O=C(Nc1ccc(-c2ccncc2)cc1)N[C@H](CO)c1ccccc1 [ONC0000213, as1892802] | 69.04% |
| O=S(=O)(NCCCCCCc1ccccc1)c1cccc2c(Cl)cccc12 [ONC0002705, sc9] | 87.04% |
| O=C(CCN1CCN(C(=O)OCc2cc(Cl)cc(Cl)c2)CC1)c1ccc2[nH]c(=O)oc2c1 [ONC0000928, pf8380] | 65.28% |
| O=C(Nc1ccccc1)Nc1ccc(-c2ccc(C(=O)[C@@H]3CCC[C@@H]3C(=O)O)cc2)cc1 [ONC0005068, a 922500] | 83.85% |
| CC(=O)c1ccc(NS(C)(=O)=O)c(Oc2ccc(F)cc2F)c1 [ONC0001180, fk 3311] | 85.6% |
| CCOCc1cc(OC)c(-c2ccc(C[C@H](NC(=O)c3c(F)cccc3F)C(=O)O)cc2)c(OC)c1 [ONC0000992, firategrast] | 77.08% |
| CC(O)(C(=O)Nc1ccc(S(=O)(=O)c2ccccc2)cc1)C(F)(F)F (stereo not drawn) [ONC0001465, zm226600] | 52.05% |
| N[C@@H](CCC(=O)N[C@@H](CSN=O)C(=O)NCC(=O)O)C(=O)O [ONC0003929, snitrosoglutathione] | 63.41% |
| CC(CCc1ccc(O)cc1)NCCc1ccc(O)c(O)c1 (stereo not drawn) [ONC0001208, dobutamine hydrochloride] | 106.8% |
| CCCNS(=O)(=O)Nc1ncnc(OCCOc2ncc(Br)cn2)c1-c1ccc(Br)cc1 [ONC0004375, macitentan] | 136.6% |
| CCOC(=O)CSCCC1NC(C(=O)O)CS1 (stereo not drawn) [ONC0003361, letosteine] | 74.26% |
| CC1=C(C(=O)OCCN(Cc2ccccc2)c2ccccc2)C(c2cccc([N+](=O)[O-])c2)C(P2(=O)OCC(C)(C)CO2)=C(C)N1 (stereo not drawn) [ONC0000208, efonidipinemonoethanolate] | 72.76% |
| C1CCC2(CC1)CCNCC2 [ONC0002600, 44pentamethylenepiperidine] | 78.96% |
| CC(=O)[C@H]1CC[C@H]2[C@@H]3CC=C4C[C@@H](O)CC[C@]4(C)[C@H]3CC[C@]12C [ONC0003199, pregnenolone] | 77.25% |
| CS(=O)(=O)c1ccc(Oc2cc(F)cc(C#N)c2)c2c1[C@H](O)C(F)(F)C2 [ONC0001118, pt2385] | 47.48% |
| [N-]=[N+]=N[C@]1(CO)O[C@@H](n2ccc(N)nc2=O)[C@@H](O)[C@@H]1O [ONC0000950, ro9187] | 66.7% |
| CC[C@]12CCCN3CCc4c(n(c5ccccc45)[C@@](O)(C(=O)OC)C1)[C@@H]32 [ONC0003425, vincamine] | 89.22% |
| CCOC(=O)c1ccc(C#Cc2ccc3c(c2)C(C)(C)CCS3)nc1 [ONC0004840, tazarotene avage] | 98.67% |
| CC(C)N(CCC(=O)c1ccc2ccccc2c1)Cc1ccccc1 [ONC0001511, zm39923] | 104.1% |

| SMILES | % viability |
| --- | --- |
| CN1C2CCC1CC(OC(c1ccc(F)cc1)c1ccc(F)cc1)C2 (stereo not drawn) [ONC0001429, 3alphabis4fluorophenylmethoxytropane] | 64.19% |
| COc1cnc(-n2cnc(C)n2)c2[nH]cc(C(=O)C(=O)N3CCN(C(=O)c4ccccc4)CC3)c12 [ONC0005617, temsavir] | 66.52% |
| CCC(C)(C)c1ccc(CC(C)CN2C[C@@H](C)O[C@@H](C)C2)cc1 (stereo partly drawn) [ONC0002289, amorolfine hydrochloride] | 102.4% |
| CC1=NN(c2ccc(C(=O)O)cc2)C(=O)C1=Cc1ccc(-c2cc(C)c(C)cc2[N+](=O)[O-])o1 [ONC0005189, c646] | 86.23% |
| CC(=O)N(O)C/C=C/c1cccc(Oc2ccccc2)c1 [ONC0002118, bwa4c] | 107.7% |
| Cc1ccc2c(c1)Cc1c(C(=O)NN3CCCCC3)nn(-c3ccc(Cl)cc3Cl)c1-2 [ONC0003618, gp1a] | 65.76% |
| O=c1[nH]c(=O)n([C@H]2C[C@H](O)[C@@H](CO)O2)cc1/C=C/Br [ONC0002734, e52bromovinyl2deoxyuridine] | 104.4% |
| COc1ccc(-c2cc3c(C)nc(N)nc3n([C@H]3CC[C@H](OCCO)CC3)c2=O)cn1 [ONC0005035, pf04691502] | 124.7% |
| NCC(=O)N1C[C@H](NC(=O)c2ccccc2)C[C@H]1C(=O)O [ONC0002056, danegaptide hydrochloride] | 91.92% |
| CNC[C@@H]1CC[C@@H](N)[C@@H](O[C@H]2[C@H](O)[C@@H](O[C@H]3OC[C@](C)(O)[C@H](NC)[C@H]3O)[C@H](N)C[C@@H]2N)O1 [ONC0000290, micronomicin sulfate] | 71.21% |
| Nc1nc2c(ncn2[C@@H]2O[C@H](CO)[C@@H](O)[C@H]2O)c(=S)[nH]1 [ONC0004689, thioguanosine] | 121.6% |
| CCOC(=O)Nc1ccc(NCc2ccc(F)cc2)nc1N.O=C(O)/C=C\C(=O)O [ONC0001304, flupirtine maleate] | 68.53% |
| CCC[C@@H](NC(=O)N1C(=O)C(CC)(CC)[C@@H]1Oc1ccc(C(=O)N2CCN(C)CC2)cc1)c1ccc2c(c1)OCO2 [ONC0002097, dmp 777] | 57.58% |
| CN[C@@H]1Cc2cccc3[nH]c(=O)n(c23)C1 [ONC0005404, sumanirole] | 122.2% |
| Cn1c(=O)c(F)c(Nc2ccc(I)cc2F)c2c(=O)n(C[C@@H](O)CO)cnc21 [ONC0004657, tak733] | 95.29% |
| COc1ccc2c(NC(=O)Nc3cccc(C(F)(F)F)n3)ccnc2c1 [ONC0002529, a1070722] | 76.76% |
| COc1ccc2nc3cc(Cl)ccc3c(Nc3cc(CN4CCCC4)c(O)c(CN4CCCC4)c3)c2n1 [ONC0004161, pyronaridine tetraphosphate] | 95.09% |
| CO/N=C(\C(=O)N[C@@H]1C(=O)N2C(C(=O)O)=C(CSc3nc(C)c(CC(=O)O)s3)CS[C@H]12)c1csc(N)n1 [ONC0003298, cefodizime] | 95.35% |
| CCCCCCCCCCCCCCCCO [ONC0004836, 1hexadecanol] | 111.6% |
| CCN1/C(=C/C(C)=O)Sc2ccc(OC)cc21 [ONC0004814, tg003] | 98.43% |
